Hit rate of the full screen: of about 31,000 sequences, about 1,400 (4.5%) were called active.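 The calls were made as follows: active = median seed-adjusted z-score above 1 or below -1; inactive = the rest.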 Some of the results follow.

The experiment in a line: Novel Modifiers of Survival Motor Neuron (SMN) Protein: Gene Identification via Genome-wide siRNA Screen.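 Also: luminescence tracks full-length SMN protein made from the SMN2 reporter.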 Conditions: HEK293T SMN2-luciferase reporter, siRNA knockdown, 72 h; actives lie on both sides. The method in brief:
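siRNA screen, 10418 genes ×3 siRNAs; 1 pmol/well, lipid reverse transfection into HEK293T SMN2-luc reporter line. 72 h, 37 °C, 5% CO2; ONE-Glo readout. Data: neg-ctrl normalized, log10, MAD; hit = MAD >1.0 or < -1.0.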
Background: In a reporter assay the amount or activity of a reporter protein is the signal.
Regarding GCAAUGAGGUGGAGCCUGATT against TARBP2, the median seed-adjusted z-score was inactive: 0.068.
The figure for CAGCAUAUUUAAGUUCUUUTT against AMACR is inactive: -0.591; for UGAUCGCUCUCAAGCCGGUTT against POU4F3 it is inactive: 0; for CAAUGAGCCUGGUGUUAGATT against GPN1 it is inactive: -0.14.
With GGCAGAUGGUGGGACCUAUTT against EXOSC4, the median seed-adjusted z-score is inactive: 0.443.
The figure for GCAACUGUGAAAGCACUAATT against MAP2K4 is inactive: -0.366; for GUCUGUAGUUCACCCGUUATT against USP9Y it is inactive: 0.012.
The figure for CAGCAGGUGUACAAAACCATT against TNP2 is inactive: -0.346.
Next, CGCCGAGAGUGUUUUGGCATT against NEU4: inactive: -0.152.
For GCUGAUCCAGUGUCUCUUUTT against HSF4, the median seed-adjusted z-score is inactive: 0.926.
As to AGUAUCAUCUGUUACUAUATT against MAP2K1IP1, the median seed-adjusted z-score was inactive: 0.333.
Next, AGCUGUCUCUGAUCCGCAATT against CCND2: inactive: -0.819; CAGUUGCUAUGAGACUUGATT against CYP3A7: inactive: -0.107; CCCAUUUAAGGAGAACUAUTT against MPPE1: inactive: -0.409.
Regarding CUCACUAAGAAGACCCAAATT against VEGFB, the median seed-adjusted z-score is inactive: 0.
The figure for CCUCAGAUCUGAUGUCCAATT against VPS4A is inactive: 0.
The figure for GGACAAAGACUGGUACGUUTT against HTT is inactive: -0.234; for ACUUCAUGAUGGAUAUCCATT against KCNN4 it is inactive: 0.00864.
Next, CGGUCCAUCUGAUCCAUGATT against GANAB: inactive: 0.269; CAUCAAGAAUUGCGAAUUATT against TRIP4: inactive: -0.0385; CUGUUCCAAUUAAAGAUAATT against ATRIP: inactive: 0.353.
With UCUCCUUCCUUUUAACGGATT against CACNG5, the median seed-adjusted z-score was inactive: -0.41.
Turning to UGGUCUAUCGGGAUCAGAATT against KLC2, the median seed-adjusted z-score is inactive: 0.0706.
Turning to GCAUGUAGGUCACCUCAUUTT against WARS, the median seed-adjusted z-score was inactive: -0.724.
Next, GGACAGACAAGGAACCCAUTT against CASP10: inactive: -0.0372; GGAAGGCAAGUACAGCGUATT against PCDH21: inactive: -0.528.
The figure for CCUCAACUGCAUACGGAAATT against GRID1 is inactive: 0.66; for CCAGAUGCCUGGUGAAACATT against RAB38 it is inactive: -0.165.
Next, CAUCCACAUUGCACAUAAATT against TYK2: inactive: -0.549.
In the case of GCAUGACCUCUGUAAGGGATT against ANK1, the median seed-adjusted z-score is inactive: -0.282.
Next, CAACAAAACUCCACUCGAATT against OPRM1: inactive: -0.00476; UGACAUCAAGAGCUACUUUTT against FEN1: inactive: -0.316.
Next, GGAGAGCUGUGAAAAGUCATT against CCR8: inactive: -0.206; GCAUCCAGAUUCCGAACAATT against ZACN: inactive: 0.065.
Next, CUUCUUCGAUGAUUCCUAUTT against UBE2O: inactive: 0.125; CGAUUUCGGCAACAAUUUATT against CAPNS2: inactive: 0.529; GGGCUACAAACUGAACAAATT against LOC81691: inactive: -0.285.
With CCUACGUUUUUAUUAUCUUTT against SLC2A14, the median seed-adjusted z-score was active: -1.09.
Turning to CCACAGAGAUUAACUUCAATT against CRABP2, the median seed-adjusted z-score was inactive: 0.0092.
Next, GAGUUCAACUUAGAGACGATT against TIE1: inactive: 0.0629; AGAGGGUGUUCUCUAUGUATT against SNCA: inactive: 0.36; GUACAUAACAUCAAUUUCATT against ZBTB24: inactive: -0.156.
On to GGAACAUAGAGAUUUUAUATT against BHLHB3, for which the median seed-adjusted z-score was inactive: -0.00972.
The figure for GGACGAUUACAUCUUCUUUTT against SORCS2 is inactive: 0.648; for CGAGUGCACUGCUGCCUAUTT against 5-Sep it is inactive: -0.0749; for CGCUGUAAAUAUACACUAUTT against ADRA2A it is inactive: -0.65.
Next, CAUCCAUCCUGUUUCCACUTT against GAL3ST4: inactive: 0.248; AGAGGAGCAUACUACAUGATT against SPAG7: inactive: 0.263; CAGUUGACAGUGUGAUUAUTT against ACAA2: inactive: 0.435.
Turning to GGUCAGCCCUUCUUUCACATT against ZNF192, the median seed-adjusted z-score was inactive: 0.
In the case of GCAUGUCUAUCCUACGUGATT against TUSC4, the median seed-adjusted z-score is inactive: 0.312.
The figure for GCUAUAAGGUGGAACGGCATT against POLR2A is active: -3.81; for GCAAGUUCCAGGGCUACUATT against MGAT1 it is inactive: 0.138; for GGCCCUUGUCUCUAAGGAUTT against SLC22A17 it is inactive: -0.149.
Next, ACAUCAUCACGUCGCAGAATT against CLDN3: inactive: -0.0833; GGAGGUGACCUUCCAGGAATT against RAB17: inactive: 0.473; GGCUAGUAGCUGAACUUCATT against DIMT1L: inactive: 0.0156.
With GCAAGUGGAGAACACUUUATT against NKX2-2, the median seed-adjusted z-score was inactive: -0.0805.
The figure for CACCUGAAUCUAUACGCUUTT against DGKK is inactive: 0.
Next, GCUCCACUCCGAACAAUCATT against EPO: inactive: 0.148; CCAACAAACAGUACGGGUATT against AVPR1A: inactive: 0; GCAGAUUACUGGUGACUAUTT against AMPD1: inactive: 0.378.
Next, CAGUCUACAGCUUCAACAATT against ZNF207: active: -3.1.
As for GAUCAGGCCUUAUUCGACATT against ZNF345, the median seed-adjusted z-score was inactive: -0.275.
Take GCCUGACCCGUGAGACAAATT against THY1: the median seed-adjusted z-score is active: -1.1.
Next, GGAGGUGUAUUUCCGGUUUTT against APOBEC3D: inactive: -0.0215; GGAGUGUGAUCGACCCUCATT against KRTAP5-5: active: -1.07.
For the sequence GGAAGAAACCAUUACAAUATT against SNAPC3, the median seed-adjusted z-score is active: -1.72.
The figure for GGAUUAUCACCUGAACUAUTT against FMR1 is inactive: 0.504; for GAACCAACCUGUCAAGUGATT against SELL it is inactive: 0.554; for GACUGAUUGCUGAUAGAAATT against DOCK1 it is inactive: -0.235.
For GCAAUCUGCGUAGCAAAUATT against ANGEL2, the median seed-adjusted z-score is inactive: -0.59.
Next, GGCUGUAAGUGGUCUCCGUTT against TYROBP: inactive: 0.249; CCUCCUCAGUCAUAGAGCATT against NR2F2: inactive: 0.129; GGAUUAGUCCAAAGAGUGATT against FZD6: inactive: 0.312.
Consider GGAGAGGUAGAGAUCCGAATT against LTK, for which the median seed-adjusted z-score was inactive: -0.0881.
In the case of CCUGAAUCGGAUUAAAGAATT against LCN9, the median seed-adjusted z-score was inactive: -0.897.
Next, GGCUGGGACUCGAAAGAAATT against APOB48R: inactive: 0.386.
In the case of CGUGGUCACAAUUCUGCUATT against GPRC5D, the median seed-adjusted z-score is inactive: -0.038.
Next, GCAUCGUUGAGACUUCGGATT against ARL6IP5: inactive: -0.202; GGUUGAAGAUGGUACUCCUTT against ADAMTS20: active: 1.44; GAUGGAUCUUUACAGUUGATT against METTL4: inactive: 0.244.
As to CCAUGAAAGAACUUUCAAATT against AICDA, the median seed-adjusted z-score is inactive: 0.289.
Next, CUGUCAAUAUGAUCUCUUATT against AADAC: inactive: 0.0318; GCAAAGUCGUAUGCGAUGATT against PABPC5: inactive: -0.428; GAAUCUCGUUGGUCCUGUUTT against GLMN: inactive: 0.
Consider AGACCUUCAUCAAAAACAUTT against MYC, for which the median seed-adjusted z-score is inactive: -0.543.
The figure for CAACGAAAAUCUAAAUGCATT against HMMR is inactive: 0.389; for CCAGUGAGGUUACCACUUATT against ZCCHC13 it is inactive: -0.297.
In the case of AGACCUAGCUUUAGCACAATT against ZFAND2B, the median seed-adjusted z-score is inactive: 0.
For CGCUUUAACUGGAAGCUCUTT against ABCB8, the median seed-adjusted z-score is inactive: -0.558.
Regarding CGCAGCUGCUUUCCUAAAATT against BAHD1, the median seed-adjusted z-score was inactive: 0.376.
The figure for GUUUCUUGGUAUACCGUAATT against BRPF1 is inactive: 0.
Turning to GGACUCUAUUGAUAGGGAATT against PLA2G7, the median seed-adjusted z-score was inactive: 0.292.
The figure for UCCUCGAGCAGUUCCGUAATT against TUBG2 is inactive: 0; for GAACCACACGCAGAUCAGATT against GAL3ST2 it is inactive: 0.
Consider GAAGCUGGACAGCUGUAAATT against PLA2G1B, for which the median seed-adjusted z-score is inactive: -0.411.
Next, CAAAUGUCAUGCAGACUUUTT against BHMT2: inactive: -0.0704; GCCCAUUGCUGCAAAUGCATT against VSX2: inactive: -0.333; GGAAGAAAAUAGUGCUGCATT against BARX1: active: 1.63.
Turning to GGUAGACCUUUAUUGGGUATT against LMO2, the median seed-adjusted z-score is inactive: 0.
Consider GCCUAGAUGAGCGAAUUUATT against LSM3, for which the median seed-adjusted z-score was active: -1.36.
Next, UCUACAAGCUGGACCCUGATT against MYO1G: inactive: -0.907; GCUCCGAAGUGUUUACAAUTT against DQX1: inactive: -0.297; AGAUCCUUCCUACCCUCAATT against GPX3: inactive: 0.193.
CGUGAAGCACGUGUACAGATT against KCTD2: the median seed-adjusted z-score was inactive: 0.133.
Regarding GCUGGACCGUAAAAUUGAATT against PSMC4, the median seed-adjusted z-score is inactive: -0.361.
As for GGGUUUUGCUGACAGCUCATT against ZNF48, the median seed-adjusted z-score is inactive: -0.116.

(Values after PubChem BioAssay AID1347426 (Functional Genomics Laboratory (NCATS/FGL), 2020).)
